We go through 30 compounds from the supplement of paper PMC12889115.

The other results are listed elsewhere or left out. Values are raw readings; no control value is given beside them.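 First-pass screen: polymyxin B was added at a level that permeabilizes the Salmonella outer membrane while sparing the inner membrane. DMSO wells, with and without polymyxin B, defined maximum growth. Because plates differed from one another, each plate's data were ranked separately and the compounds with the lowest OD600 were carried forward as hits.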

This experiment concerns Salmonella enterica serovar Typhimurium SL1344. The experiment can be described thus: bacterial growth OD600 after 18 h with compound and polymyxin B; higher = more bacterial growth (less inhibition). To be noted: 50 µM, Mueller-Hinton broth.

With `COc1ccc2ccccc2c1[C@@H]1C[C@H]2CN(C)C(=O)[C@]23CCCN13`, the “bacterial growth OD600” value (polymyxin B 1 µg/mL) stood at 0.95. Consider `CCOc1ccc2nc(N3CCC(NC4Cc5ccccc5C4)CC3)nc(C)c2c1`, for which, under “polymyxin B 0.75 µg/mL”, the “bacterial growth OD600” value turned out to be 1.01. On the same count and under the same terms, under `CC(C)Cc1nc2cc(NS(=O)(=O)N(C)C)cc(C(=O)NCCCOc3cccnc3)c2n1C` stands 0.872.

In the case of `CCCCc1nc2cc(C(=O)N(C)CCN3CCOCC3)ccc2o1`, where the note is “polymyxin B 1 µg/mL”, the “bacterial growth OD600” value was 0.873. `COc1cc(CC2(CCC(=O)N(C)CCc3ccc(OC)c(OC)c3)CCC(=O)N2)ccc1F` (stereo not given): the “bacterial growth OD600” value (polymyxin B 0.75 µg/mL) came to 0.832. On to `COc1ccc(-c2noc(CN3CCC(Cc4ccccc4)CC3)n2)c(OC)c1OC`, for which the “bacterial growth OD600” value (polymyxin B 1 µg/mL) worked out at 1.15. The same measure, in the same setting: the result for `CN1CCCCC1C(=O)NCc1cccnc1Oc1ccccc1F` (stereo not given) reads 0.895; that for `CN(Cc1cnn(C)c1)C(=O)c1csc2nc(-c3ccc(Cl)cc3)cn12`, 0.014. For the compound `Cc1cccc(OC2CCN(Cc3nc(Cc4ccccc4F)no3)CC2)c1`, the “bacterial growth OD600” value (polymyxin B 1 µg/mL) worked out at 0.691. For `COCCN(Cc1ccc(F)c(OC)c1)CC1CCCN(C2Cc3ccccc3C2)C1` (stereo not given), the “bacterial growth OD600” value (polymyxin B 0.75 µg/mL) came to 0.79. The same measure, in the same setting: the result for `Cc1ncc(-c2ccc(F)cc2)c(C2CCCN(C(=O)Cc3ccc(N4CCNC4=O)cc3)C2)n1` (stereo not given) reads 0.824; that for `Cc1c(C(=O)N(Cc2cccc(OCC3CCOC3)c2)Cc2ccccn2)[nH]c2ccc(Cl)cc12` (stereo not given), 0.546; that for `COc1cc(OC)c(CN2CC(=O)N(c3ccccc3C)C(C)C2)c(OC)c1` (stereo not given), 0.79.

Consider `O=C1CCC(C(=O)N2CCCCO2)CN1CCc1ccc(Cl)cc1` (stereo not given), for which the “bacterial growth OD600” value (polymyxin B 1 µg/mL) turned out to be 0.897.

`CCC1CN(CC(=O)N2CCC(N3CCOCC3)CC2)Cc2cc(OC)ccc2O1` (stereo not given): the “bacterial growth OD600” value (polymyxin B 0.75 µg/mL) was 0.842. On to `CCOc1ccccc1-c1nc(CN2CCCC2c2nonc2C)c(C)o1` (stereo not given), for which the “bacterial growth OD600” value (polymyxin B 1 µg/mL) stood at 0.712. On the same count and under the same terms, under `O=C(c1cccs1)N1CCC2(CCCN(Cc3ccc(F)cc3)C2=O)C1` (stereo not given) stands 0.894; under `CCc1cc(CNC(=O)c2cc(OC)ccc2OC2CCN(C3CCCC3)CC2)on1`, 1.14; under `COc1ccc(CN2CCN(CCC(C)C)C(CCO)C2)c(Cl)c1OC` (stereo not given), 0.836. Consider `COc1ccccc1CCC(=O)N1CCCC(N2CCN(c3cccc(Cl)c3)CC2)C1` (stereo not given), for which the “bacterial growth OD600” value (polymyxin B 1 µg/mL) is 0.81. With `Cc1nc(N(C)C2CCCCC2)ncc1C(C)NC(=O)c1cccnc1` (stereo not given), the “bacterial growth OD600” value (polymyxin B 0.75 µg/mL) is 0.698. `COCCn1cnc2cc(NC(=O)C3CCCCC3)cc(C(=O)NCc3cc(F)cc(F)c3)c21`: the “bacterial growth OD600” value (polymyxin B 0.75 µg/mL) was determined as 0.559.

In the case of `CCC(C)CNC(=O)C1(N2CCN(CC)CC2)Cc2ccccc2C1` (stereo not given), for the setting “polymyxin B 0.75 µg/mL”, the “bacterial growth OD600” value was 0.982. On the same count and under the same terms, under `COc1ccccc1C1CN(CCNC(=O)CCc2scnc2C)Cc2ccccc2O1` (stereo not given) stands 0.523.

Take `CCC1CN(CC(=O)NC2CCN(Cc3ccccc3)CC2)Cc2cc(OC)ccc2O1` (stereo not given): the “bacterial growth OD600” value (polymyxin B 0.75 µg/mL) came out at 0.823. With `Cc1nc2sccn2c1CN1CCCC(C(=O)c2cccc(OC(C)C)c2)C1` (stereo not given), the “bacterial growth OD600” value (polymyxin B 1 µg/mL) turned out to be 0.741. Still for that read-out and setting: under `COc1ccc(NC(=O)CCC2CCCN(Cc3cccc(C)n3)C2)cc1Cl` (stereo not given) stands 0.855.

On to `O=C(NCc1cccnc1N1CCCC(O)C1)c1ccc(Cl)c(F)c1` (stereo not given), for which the “bacterial growth OD600” value (polymyxin B 0.75 µg/mL) was 0.786.

Regarding `COc1ccc(CCN2CC(NC(=O)C3CCC3)CC2=O)cc1` (stereo not given), for the setting “polymyxin B 1 µg/mL”, the “bacterial growth OD600” value came out at 0.881. `OC(Cc1ccccc1)c1ccc2c(c1)CN(CC#Cc1ccccc1)CCO2` (stereo not given): the “bacterial growth OD600” value (polymyxin B 0.75 µg/mL) was 0.613.
